Source: PMC10948360
No constants are given. Whether binding was seen depends on the method and setting. Some entries that bind do so weakly or less than the wild type.

Biological target: T1, Full-length kinesin heavy chain (Khc FL), unlabeled (Drosophila), P17210
T1 chain: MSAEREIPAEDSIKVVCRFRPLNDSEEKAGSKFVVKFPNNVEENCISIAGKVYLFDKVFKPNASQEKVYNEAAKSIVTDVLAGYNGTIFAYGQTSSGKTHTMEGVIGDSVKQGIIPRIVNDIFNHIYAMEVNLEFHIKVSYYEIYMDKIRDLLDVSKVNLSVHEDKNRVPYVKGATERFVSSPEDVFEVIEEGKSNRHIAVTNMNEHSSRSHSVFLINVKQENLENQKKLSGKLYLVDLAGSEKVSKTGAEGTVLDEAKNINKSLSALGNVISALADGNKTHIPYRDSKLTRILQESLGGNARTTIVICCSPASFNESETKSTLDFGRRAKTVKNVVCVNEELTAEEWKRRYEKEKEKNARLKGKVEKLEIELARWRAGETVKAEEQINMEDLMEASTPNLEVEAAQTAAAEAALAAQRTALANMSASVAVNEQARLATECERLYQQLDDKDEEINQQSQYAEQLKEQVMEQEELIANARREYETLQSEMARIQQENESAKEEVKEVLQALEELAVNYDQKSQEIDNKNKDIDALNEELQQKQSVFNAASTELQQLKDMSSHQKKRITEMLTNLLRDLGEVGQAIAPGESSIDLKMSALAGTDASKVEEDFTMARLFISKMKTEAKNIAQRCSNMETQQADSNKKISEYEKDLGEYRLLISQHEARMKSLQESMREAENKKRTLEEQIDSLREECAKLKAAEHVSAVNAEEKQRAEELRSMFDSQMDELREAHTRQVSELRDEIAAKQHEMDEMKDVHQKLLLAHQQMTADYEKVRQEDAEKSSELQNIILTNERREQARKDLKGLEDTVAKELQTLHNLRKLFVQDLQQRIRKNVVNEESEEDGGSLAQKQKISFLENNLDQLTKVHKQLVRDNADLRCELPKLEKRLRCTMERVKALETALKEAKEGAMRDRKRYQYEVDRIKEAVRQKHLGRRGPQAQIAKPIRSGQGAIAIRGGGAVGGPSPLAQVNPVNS
Test: mass photometry; coexpressed, copurified Khc–Tm1 complex at 20 nM in PBS; both purified
Conditions: remark: other sources report otherwise

B1: Full-length kinesin heavy chain (Khc FL), unlabeled, P17210 1-975 (protein)
chain: MSAEREIPAEDSIKVVCRFRPLNDSEEKAGSKFVVKFPNNVEENCISIAGKVYLFDKVFKPNASQEKVYNEAAKSIVTDVLAGYNGTIFAYGQTSSGKTHTMEGVIGDSVKQGIIPRIVNDIFNHIYAMEVNLEFHIKVSYYEIYMDKIRDLLDVSKVNLSVHEDKNRVPYVKGATERFVSSPEDVFEVIEEGKSNRHIAVTNMNEHSSRSHSVFLINVKQENLENQKKLSGKLYLVDLAGSEKVSKTGAEGTVLDEAKNINKSLSALGNVISALADGNKTHIPYRDSKLTRILQESLGGNARTTIVICCSPASFNESETKSTLDFGRRAKTVKNVVCVNEELTAEEWKRRYEKEKEKNARLKGKVEKLEIELARWRAGETVKAEEQINMEDLMEASTPNLEVEAAQTAAAEAALAAQRTALANMSASVAVNEQARLATECERLYQQLDDKDEEINQQSQYAEQLKEQVMEQEELIANARREYETLQSEMARIQQENESAKEEVKEVLQALEELAVNYDQKSQEIDNKNKDIDALNEELQQKQSVFNAASTELQQLKDMSSHQKKRITEMLTNLLRDLGEVGQAIAPGESSIDLKMSALAGTDASKVEEDFTMARLFISKMKTEAKNIAQRCSNMETQQADSNKKISEYEKDLGEYRLLISQHEARMKSLQESMREAENKKRTLEEQIDSLREECAKLKAAEHVSAVNAEEKQRAEELRSMFDSQMDELREAHTRQVSELRDEIAAKQHEMDEMKDVHQKLLLAHQQMTADYEKVRQEDAEKSSELQNIILTNERREQARKDLKGLEDTVAKELQTLHNLRKLFVQDLQQRIRKNVVNEESEEDGGSLAQKQKISFLENNLDQLTKVHKQLVRDNADLRCELPKLEKRLRCTMERVKALETALKEAKEGAMRDRKRYQYEVDRIKEAVRQKHLGRRGPQAQIAKPIRSGQGAIAIRGGGAVGGPSPLAQVNPVNS
**Q.** Which binding does the source give for B1 here?
**A.** Its binding is “binds”.
